Assay results: patent publication US6994862B2, “Formulation solubilizing water-insoluble agents and preparation method thereof” (Korea Institute of Science and Technology, priority 2000, dated 2006)
For at least one compound, name, drawing or mass did not settle the structure.

Experiment: Release experiment of a pharmaceutical compound (dialysis bag, PBS pH 7.4, 37° C.)
Type: physicochemical
Description: Dispersion was prepared by mixing 250 μL of the above liquid formulation with 1.75 mL of distilled water and shaken manually. The mixture was then added into a dialysis bag (MWCO=3,500, Spectra/Por^R, Spectrum Medical Industries, Inc., USA), both ends were tied with a closure, and placed into a 50 ml conical tube containing 10 ml of phosphate buffered saline (PBS, pH=7.4). The conical tube was placed in a 37° C. shaking water bath for the release experiment. The PBS solution located outside the dialysis tube was collected at regular intervals to analyze concentration of the pharmaceutical compound released from the dialysis bag by using Fluorescence spectroscopy (λex=370 nm, λem=480 nm). An aqueous solution where 0.7 mg of rifampicin was dissolved in 2 mL of distilled water was used as a control.
Release experiment was performed using the liquid formulation manufactured the same as in the experimental Example 1 with the exception that 0.7 mg of bromocresol green was used in place of rifampicin. The released drug was collected from the PBS solution and subsequently analyzed for its absorbance at 617 nm. An aqueous solution, where 0.7 mg of bromocresol green was dissolved in 2 mL of distilled water, was used as a control.

SMILES: CO[C@H]1/C=C/O[C@@]2(C)Oc3c(C)c(O)c4c(O)c(c(/C=N/N5CCN(C)CC5)c(O)c4c3C2=O)NC(=O)/C(C)=C\C=C\[C@H](C)[C@H](O)[C@@H](C)[C@@H](O)[C@@H](C)[C@H](OC(C)=O)[C@@H]1C [Rifampicin, rifampicin]
- Release Pattern (dialysis bag MWCO 3,500 in PBS pH 7.4, 37° C.): Fast Release
- drug released (within 5 hr, dialysis bag in PBS pH 7.4, 37° C.): more than 80%
